Reference: US10251959B2, “Oligomer-beta blocker conjugates” (Nektar Therapeutics, priority 2007, dated 2019)
The match of structure and compound is tentative.

The chains behind the UniProt entries cited, without tags or fusion partners.
UniProt P07550, whole entry: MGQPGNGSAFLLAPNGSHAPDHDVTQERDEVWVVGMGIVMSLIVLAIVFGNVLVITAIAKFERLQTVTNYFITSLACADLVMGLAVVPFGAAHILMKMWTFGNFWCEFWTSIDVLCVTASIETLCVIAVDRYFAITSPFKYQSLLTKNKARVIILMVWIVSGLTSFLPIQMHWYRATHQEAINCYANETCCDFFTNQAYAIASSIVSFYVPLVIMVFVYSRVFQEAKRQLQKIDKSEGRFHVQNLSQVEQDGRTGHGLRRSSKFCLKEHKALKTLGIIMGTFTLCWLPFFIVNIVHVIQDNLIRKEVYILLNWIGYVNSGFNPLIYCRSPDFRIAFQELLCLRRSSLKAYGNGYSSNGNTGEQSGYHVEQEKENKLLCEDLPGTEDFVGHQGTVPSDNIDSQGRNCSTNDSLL

Molecular target: adrenergic, beta-2 (human) (Homo sapiens, UniProt P07550)
Experiment: adrenergic, beta-2 (human) binding assay; HL-60 cells, isoproterenol, EIA read-out
Type: cell-based
Settings: Table 3, 300 μM IBMX, 100 nM isoproterenol, 20 minutes at room temperature

IC50: 4.59 µM
Structure (SMILES): COCCOCCOCCOC(CNC(C)(C)C)COc1nsnc1N1CCOCC1 (stereo not shown)
